For 1 molecule, binding results are on record in publication PMC11166458, “Caskin2 is a novel talin- and Abi1-binding protein that promotes cell motility” (Journal of Cell Science, 2024).

Protein sequences, listed by entry. Tags and fused reporters are not part of them. Lines headed by an entry give the natural chain unless they say otherwise; changes in a name come on top.
UniProt Q8WXE0: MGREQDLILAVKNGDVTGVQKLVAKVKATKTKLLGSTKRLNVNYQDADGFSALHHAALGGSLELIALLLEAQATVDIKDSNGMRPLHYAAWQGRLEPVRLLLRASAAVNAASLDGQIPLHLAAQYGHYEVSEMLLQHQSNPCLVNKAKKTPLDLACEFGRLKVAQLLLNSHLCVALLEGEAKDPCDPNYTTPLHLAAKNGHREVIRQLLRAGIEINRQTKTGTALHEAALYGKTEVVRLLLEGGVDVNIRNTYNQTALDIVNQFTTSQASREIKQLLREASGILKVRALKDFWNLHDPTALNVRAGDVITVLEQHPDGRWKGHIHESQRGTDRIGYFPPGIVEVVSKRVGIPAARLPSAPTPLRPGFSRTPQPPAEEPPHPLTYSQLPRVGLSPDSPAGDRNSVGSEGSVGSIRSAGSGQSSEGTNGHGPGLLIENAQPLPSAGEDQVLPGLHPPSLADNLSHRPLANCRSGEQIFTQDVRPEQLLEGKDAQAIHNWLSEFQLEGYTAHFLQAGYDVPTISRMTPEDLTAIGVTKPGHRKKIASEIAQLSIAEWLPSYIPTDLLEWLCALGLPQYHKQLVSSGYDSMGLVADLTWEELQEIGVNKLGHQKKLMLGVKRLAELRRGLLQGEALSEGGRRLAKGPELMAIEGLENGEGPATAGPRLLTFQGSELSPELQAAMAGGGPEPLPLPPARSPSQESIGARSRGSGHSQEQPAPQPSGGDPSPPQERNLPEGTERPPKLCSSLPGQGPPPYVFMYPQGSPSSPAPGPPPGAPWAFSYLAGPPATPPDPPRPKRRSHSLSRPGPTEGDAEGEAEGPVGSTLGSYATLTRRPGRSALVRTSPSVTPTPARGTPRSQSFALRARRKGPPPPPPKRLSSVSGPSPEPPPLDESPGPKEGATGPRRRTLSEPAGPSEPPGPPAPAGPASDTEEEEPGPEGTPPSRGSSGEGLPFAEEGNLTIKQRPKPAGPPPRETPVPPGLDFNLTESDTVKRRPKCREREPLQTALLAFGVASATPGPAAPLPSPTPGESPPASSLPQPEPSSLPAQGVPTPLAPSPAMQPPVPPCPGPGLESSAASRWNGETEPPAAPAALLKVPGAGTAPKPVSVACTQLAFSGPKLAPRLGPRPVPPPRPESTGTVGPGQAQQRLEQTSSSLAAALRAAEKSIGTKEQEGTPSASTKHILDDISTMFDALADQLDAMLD

The target in the test is talin-R7/R8 (residues 1358–1653) (mouse). The experiment in a line: crystal structure; talin-R7/R8 (32 mg/ml) mixed with Caskin2 LD peptide 1:2; sitting drop, 0.1 M bis-Tris propane pH 7.0, 0.1 M NaBr, 22–26% PEG3350; 2.7 Å; both purified.

These are yes or no findings as the source states them, for the method shown. A result given as binding can be weak or reduced; the word gives no strength.

B1: Caskin2-LD peptide (crystallised) (peptide, UniProt Q8WXE0 1187-1202)
peptide: STMFDALADQLDAMLD
In the case of B1, the binding result is on record as “binds”.
